# Reference: US20060127393A1
# These are yes or no findings as the source states them, for the method shown. Binding can be weak; no strength is given.
# Molecular target: rat Dkk-1 (rat)
# Assay: BiaCore and KinExA
binder,measurement,value
"11H10 monoclonal antibody (rat) (antibody, IgG1, V domains shown) VH: EVQLVESGGGLVQPANSLKLSCAASGFTFSDYAMAWVRQSPKKGLEWVATIIYDGSSTYYRDSVKGRFTISRDNAKSTLYLQMDSLRSEDTATYYCATGLGIATDYFDYWGQGVLVTVSS VL: DIRMTQSPASLSASLGETVNIECLASEDIYSDLAWYQQKPGKSPQLLIYNANSLQNGVPSRFSGSGSGTQYSLKINSLQSEDVATYFCQQYNNYPPTFGGGTKLELKR",binding,binds
